Source: PubChem BioAssay AID504327 (National Center for Advancing Translational Sciences (NCATS), 2011)
Screen size: about 390,000 compounds; about 820 (0.21%) were called active. This list was built around the results that the source calls inconclusive (neither active nor inactive); the mix of calls is not that of the screen. Calls follow the shape of the dose curve; as a rule, active = well fitted inhibition curve with a large enough effect; inconclusive = small, poorly fitted or top-dose-only effect, or another doubt; inactive = no such curve, though single readings can be large or run the other way. Potencies beside an inconclusive call are fits to weak or partial responses and may not hold up.

The chains behind the UniProt entries cited, without tags or fusion partners.
UniProt Q92830, whole entry, looked up: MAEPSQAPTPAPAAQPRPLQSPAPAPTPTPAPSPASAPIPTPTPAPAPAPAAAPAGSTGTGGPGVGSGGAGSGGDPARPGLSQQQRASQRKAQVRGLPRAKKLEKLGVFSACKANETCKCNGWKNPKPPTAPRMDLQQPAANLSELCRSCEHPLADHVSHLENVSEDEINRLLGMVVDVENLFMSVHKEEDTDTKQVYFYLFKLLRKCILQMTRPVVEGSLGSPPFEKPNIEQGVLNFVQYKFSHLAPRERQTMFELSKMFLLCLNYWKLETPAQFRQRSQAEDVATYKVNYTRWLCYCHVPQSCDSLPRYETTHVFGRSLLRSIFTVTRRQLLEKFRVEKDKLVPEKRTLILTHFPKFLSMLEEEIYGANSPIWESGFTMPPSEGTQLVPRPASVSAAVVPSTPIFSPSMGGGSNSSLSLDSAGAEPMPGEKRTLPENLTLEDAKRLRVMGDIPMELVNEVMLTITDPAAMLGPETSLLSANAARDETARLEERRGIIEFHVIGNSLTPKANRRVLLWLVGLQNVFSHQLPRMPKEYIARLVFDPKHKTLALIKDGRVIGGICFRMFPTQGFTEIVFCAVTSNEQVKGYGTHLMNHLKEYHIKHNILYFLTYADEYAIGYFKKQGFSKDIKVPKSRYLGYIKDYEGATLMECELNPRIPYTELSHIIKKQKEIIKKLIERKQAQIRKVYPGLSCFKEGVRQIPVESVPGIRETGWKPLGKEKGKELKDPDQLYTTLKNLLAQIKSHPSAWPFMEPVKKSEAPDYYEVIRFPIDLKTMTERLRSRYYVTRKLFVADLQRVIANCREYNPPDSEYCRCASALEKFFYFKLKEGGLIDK

These molecules were tested against Histone acetyltransferase KAT2A (Homo sapiens) (UniProt Q92830) (assay: qHTS Assay for Inhibitors of GCN5L2). Settings: GCN5L2 HAT assay, ThioGlo1 CoA-SH fluorescence; series mostly up to 58.9 µM.
Summary of the method: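 Titration-based screen in which CoA formation is detected via maleimide probe ThioGlo1 (50uM) turning fluorescent on thiol reaction; substrates H3(1-25) 75uM and acetyl-CoA 70uM, GCN5L2 20nM, 20 min incubation at room temperature.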
Potency is read from the fitted curve at half-maximal effect.

| SMILES | Potency |
| --- | --- |
| CCCCn1cc(S(=O)(=O)c2ccc(Cl)cc2)c(=O)c2cc(F)c(N3CCCC(C)C3)cc21 (stereo not given) | inconclusive: 35.5 µM [inhibitor, single point] |
| CC(C)N(c1ccccc1)c1ccc(NC(=O)C2CCCO2)cc1 (stereo not given) | inactive |
| CCCCCCOc1ccc(C(CC(=O)O)C(N)=O)cc1 (stereo not given) | inactive |
| CC(C)(C)c1ccccc1NC(=O)CN1C(=O)NC(Cc2ccccc2)C1=O (stereo not given) | inconclusive: 15.8 µM [inhibitor, partial curve] |
| COc1cc(C2CC(=O)N3CN(Cc4ccccc4)CSC3=C2C#N)ccc1OCc1ccccc1 (stereo not given) | inconclusive: 31.6 µM [inhibitor, single point] |
| COc1ccc(-c2nnc(C3CCN(S(=O)(=O)c4ccccc4)CC3)o2)cc1 | inconclusive: 7.08 µM [inhibitor, single point] |
| COc1cccc(CNC(=O)c2ccc3c(c2)N(C)CCS3)c1OC | inconclusive: 39.8 µM [inhibitor, partial curve, poor fit] |
| Nc1cccc(N2C(=O)c3cccc4c(N)ccc(c34)C2=O)c1 | inactive |
| COc1ccc(/C(N)=N/OC(=O)N2CCOCC2)cc1 | inactive |
| CCc1ccc(C2NC(=S)NC3=C2C(=O)N(c2ccccc2OC)C(c2ccc(CC)cc2)N3)cc1 (stereo not given) | inactive |
| Cc1ccc(NC(=O)C2CCC(CNc3c(N4CCC(C)CC4)c(=O)c3=O)CC2)cc1F (stereo not given) | inconclusive: 6.31 µM [inhibitor, full curve, poor fit] |
| Cc1csc(CNc2ncnc3ccc(-c4ccc5c(c4)OCCO5)cc23)c1 | inactive |
| COc1ccc(CCNC(=O)c2ccc3c(c2)NC(=O)C(CSCc2cc(C)ccc2C)N3)cc1OC (stereo not given) | active: 28.2 µM |
| O=C(/C=C/c1cn(-c2ccccc2)nc1-c1ccccc1)Nc1ccc(C(=O)O)cc1 | inconclusive: 28.2 µM [inhibitor, single point] |
| O=C(c1ccc2c(=O)n3c(nc2c1)CCCCC3)N1CCN(c2ccc(Cl)cc2)CC1 | inconclusive: 35.5 µM [inhibitor, single point] |
| Cc1cc(SCC(=O)Nc2nsc(-c3ccc(C(C)(C)C)cc3)n2)nc2ccccc12 | inactive |
| COc1ccc(/C=C/C(=O)c2cccs2)c(OC)c1 | inconclusive: 31.6 µM [inhibitor, single point] |
| c1nc(NC2CC2)c2cc(-c3ccoc3)ccc2n1 | inactive |
| CCOC(=O)c1ccc(NC(=S)NCCCN2CCOCC2)cc1 | inconclusive: 7.08 µM [inhibitor, single point] |
| FC(F)(F)c1cccc(OCC2CNC(=S)O2)c1 (stereo not given) | inactive |
| CN1CCc2c(sc(NC(=O)c3ccco3)c2C(N)=O)C1 | inactive |
| O=C(Nc1ccc(F)cc1F)N1CCc2c(sc3c2CCCC3)C1c1ccc(F)cc1 (stereo not given) | inactive |
| COc1cc(C(=O)Nc2ccc(S(=O)(=O)Nc3nccc(C)n3)cc2)c([N+](=O)[O-])cc1OC | inconclusive: 0.141 µM [inhibitor, full curve, poor fit] |

Some of the entries so far, comma-delimited:
SMILES,Potency
Cc1ccc(NC(=O)C2CCC(CNc3c(N4CCC(C)CC4)c(=O)c3=O)CC2)cc1F (stereo not given),"inconclusive: 6.31 µM [inhibitor, full curve, poor fit]"
Cc1csc(CNc2ncnc3ccc(-c4ccc5c(c4)OCCO5)cc23)c1,inactive

(list continues)

| SMILES | Potency |
| --- | --- |
| CCc1ccccc1NC(=O)c1cccc(N2C(=O)C3C4CCC(C4)C3C2=O)c1 (stereo not given) | inconclusive: 0.447 µM [inhibitor, partial curve, poor fit] |
| c1cnc(N2CCN(Cc3ccc4c(c3)OCO4)CC2)nc1 | inconclusive: 39.8 µM [inhibitor, single point] |
| CC(C)(C)c1ccc(OCC(=O)N(Cc2cccs2)C2CCS(=O)(=O)C2)cc1 (stereo not given) | inconclusive: 0.891 µM [inhibitor, full curve, poor fit] |
| CCN1CCN(C(=S)NC(=O)c2cccc(Br)c2)CC1 | inconclusive: 31.6 µM [inhibitor, single point] |
| Cc1ccc(SCCC(=O)Nc2ccc(Br)c(C)c2)cc1 | inconclusive: 7.08 µM [inhibitor, single point] |
| CS(=O)(=O)N1CCC(Oc2cccc(C(=O)NCCCOc3cccnc3)c2)CC1 | inactive |
| CCOc1ccc(NC(=O)Cn2nnc(C(=O)NCc3ccccc3OC)c2N)cc1 | inconclusive: 6.31 µM [inhibitor, single point] |
| c1ccc(CNc2ncnc3ccc(-c4cccnc4)cc23)cc1 | inconclusive: 25.1 µM [inhibitor, single point] |
| CN(CCC#N)C(=O)COC(=O)c1c2c(nc3ccccc13)/C(=C/c1ccco1)CC2 | inconclusive: 39.8 µM [inhibitor, single point] |
| COc1ccc(C(=O)c2sc(Nc3ccccc3F)nc2N)cc1 | inconclusive: 1 µM [inhibitor, single point] |
| CC(C)CCNC(=O)CCc1nnc2ccc(N3CCC(C)CC3)nn12 | inconclusive: 1.58 µM [inhibitor, full curve, poor fit] |
| COc1ccc2oc(=O)c(C(=O)NCc3cccnc3)cc2c1 | inconclusive: 39.8 µM [inhibitor, single point] |
| COc1ccc(C2=Nn3c(nnc3-c3ccccc3Cl)SC2)cc1OC1CCCC1 | inactive |
| COc1ccc(CCNC(=O)c2oc3ccc(OC)cc3c2C)cc1 | inconclusive: 1.58 µM [inhibitor, full curve, poor fit] |
| CC1(c2ccc(Cl)cc2Cl)OCC(Cn2ccnc2)O1 (stereo not given) | inactive |
| O=C(NCCN1CCN(c2ccccc2)CC1)C1CCCN(S(=O)(=O)c2cnc[nH]2)C1 (stereo not given) | inactive |
| COc1ccc(-c2nc3c(c(SCC(=O)Nc4ccc(C(=O)O)cc4)n2)Cc2ccccc2O3)cc1 | inconclusive: 3.16 µM [inhibitor, full curve] |
| COc1ccc(-n2cc(CNCCc3cscn3)c(-c3ccccc3Cl)n2)cc1 | inconclusive: 0.891 µM [inhibitor, partial curve, poor fit] |
| C=CCOc1ccc(/C=N/Nc2ccccn2)cc1OC | inactive |
| CCN1C(=O)c2cccc3c(S(=O)(=O)N(C(C)=O)c4ccc(OC(C)=O)cc4)ccc1c23 | inconclusive: 35.5 µM [inhibitor, single point] |
| Oc1ccc(N=Cc2ccc(-c3cccs3)s2)cc1 | inconclusive: 31.6 µM [inhibitor, single point] |
| CCn1nc(C(=O)OC(C(=O)c2c[nH]c3ccccc23)c2ccccc2)c2ccccc2c1=O (stereo not given) | inactive |
